The list shows a part of the results.
Tests used:
Test in all cases: glycan array binding signal (z-score within array); higher = stronger binding
Settings in all cases: glycan notation: IUPAC condensed, linker removed
[1] = biological target: GlcNAc(b1-3)Gal(b1-4)GlcNAc(b1-3)Gal(b1-4)GlcNAc(b1-3)GalNAc
Summary of the method: (§1)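 Glycan array binding is given as a within-array Z-score, which can be read as non-binding when negative. The arrays, 3228 of them, came from the Consortium for Functional Glycomics database and were retained only where the protein sequence was available. Z-scores were averaged across arrays of the same protein sequence at different concentrations or buffers and across linkers.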

[2] = biological target: GlcNAc(b1-3)Gal(b1-4)GlcNAc(b1-3)GalNAc
Summary of the method: as §1

[3] = biological target: GlcNAc(b1-3)Gal(b1-4)GlcNAc(b1-3)[GlcNAc(b1-3)Gal(b1-4)GlcNAc(b1-3)]GalNAc
Summary of the method: as §1

[4] = biological target: GlcNAc(b1-3)Gal(b1-4)GlcNAc(b1-6)[Gal(b1-3)]GalNAc
Summary of the method: as §1

[5] = biological target: GlcNAc(b1-3)Gal(b1-4)GlcNAc(b1-6)[GlcNAc(b1-3)Gal(b1-3)]GalNAc
Summary of the method: as §1

[6] = biological target: GlcNAc(b1-3)Gal(b1-4)GlcNAc(b1-6)[GlcNAc(b1-3)]Gal(b1-4)GlcNAc
Summary of the method: as §1

[7] = biological target: GlcNAc(b1-3)GalNAc
Summary of the method: as §1

[8] = biological target: GlcNAc(b1-3)Man
Summary of the method: as §1

[9] = biological target: GlcNAc(b1-3)[GlcNAc(b1-4)][GlcNAc(b1-6)]GlcNAc
Summary of the method: as §1

[10] = biological target: GlcNAc(b1-3)[GlcNAc(b1-6)]Gal(b1-4)GlcNAc
Summary of the method: as §1

[11] = biological target: GlcNAc(b1-3)[GlcNAc(b1-6)]GalNAc
Summary of the method: as §1

[12] = biological target: GlcNAc(b1-4)Gal(b1-4)GlcNAc
Summary of the method: as §1

[13] = biological target: GlcNAc(b1-4)GlcNAc
Summary of the method: as §1

[14] = biological target: GlcNAc(b1-4)GlcNAc(b1-4)GlcNAc
Summary of the method: as §1

[15] = biological target: GlcNAc(b1-4)GlcNAc(b1-4)GlcNAc(b1-4)GlcNAc(b1-4)GlcNAc
Summary of the method: as §1

[16] = biological target: GlcNAc(b1-4)GlcNAc(b1-4)GlcNAc(b1-4)GlcNAc(b1-4)GlcNAc(b1-4)GlcNAc
Summary of the method: as §1

[17] = biological target: GlcNAc(b1-4)[GlcNAc(b1-6)]GalNAc
Summary of the method: as §1

[18] = biological target: GlcNAc(b1-6)Gal(b1-4)GlcNAc
Summary of the method: as §1

[19] = biological target: GlcNAc(b1-6)GalNAc
Summary of the method: as §1

[20] = biological target: GlcNAc6S(b1-3)Gal(b1-4)GlcNAc
Summary of the method: as §1

[21] = biological target: Kdn(a2-3)Gal(b1-3)GalNAc
Summary of the method: as §1

[22] = biological target: Kdn(a2-3)Gal(b1-3)GlcNAc
Summary of the method: as §1

[23] = biological target: Kdn(a2-3)Gal(b1-4)Glc
Summary of the method: as §1

[24] = biological target: Kdn(a2-3)Gal(b1-4)GlcNAc
Summary of the method: as §1

[25] = biological target: Kdn(a2-3)Gal(b1-4)[Fuc(a1-3)]GlcNAc
Summary of the method: as §1

[26] = biological target: Kdn(a2-6)Gal(b1-4)GlcNAc
Summary of the method: as §1

[27] = biological target: Man(a1-2)Man(a1-2)Man(a1-3)Man
Summary of the method: as §1

[28] = biological target: Man(a1-2)Man(a1-2)Man(a1-6)[Man(a1-3)]Man
Summary of the method: as §1

[29] = biological target: Man(a1-2)Man(a1-3)Man
Summary of the method: as §1

[30] = biological target: Man(a1-2)Man(a1-3)[Man(a1-2)Man(a1-6)]Man
Summary of the method: as §1

[31] = biological target: Man(a1-2)Man(a1-3)[Man(a1-2)Man(a1-6)]Man(a1-6)[Man(a1-2)Man(a1-2)Man(a1-3)]Man
Summary of the method: as §1

[32] = biological target: Man(a1-2)Man(a1-3)[Man(a1-2)Man(a1-6)]Man(a1-6)[Man(a1-2)Man(a1-2)Man(a1-3)]Man(b1-4)GlcNAc(b1-4)GlcNAc
Summary of the method: as §1

[33] = biological target: Man(a1-2)Man(a1-3)[Man(a1-6)]Man(a1-6)[Man(a1-2)Man(a1-3)]Man(b1-4)GlcNAc(b1-4)GlcNAc
Summary of the method: as §1

[34] = biological target: Man(a1-2)Man(a1-6)[Man(a1-3)]Man(a1-6)[Man(a1-2)Man(a1-2)Man(a1-3)]Man
Summary of the method: as §1

[35] = biological target: Man(a1-2)Man(a1-6)[Man(a1-3)]Man(a1-6)[Man(a1-2)Man(a1-2)Man(a1-3)]Man(b1-4)GlcNAc(b1-4)GlcNAc
Summary of the method: as §1

[36] = biological target: Man(a1-3)[Man(a1-6)]Man
Summary of the method: as §1

[37] = biological target: Man(a1-3)[Man(a1-6)]Man(a1-6)[Man(a1-2)Man(a1-3)]Man(b1-4)GlcNAc(b1-4)GlcNAc
Summary of the method: as §1

[38] = biological target: Man(a1-3)[Man(a1-6)]Man(a1-6)[Man(a1-3)]Man
Summary of the method: as §1

[39] = biological target: Man(a1-3)[Man(a1-6)]Man(a1-6)[Man(a1-3)]Man(b1-4)GlcNAc(b1-4)GlcNAc
Summary of the method: as §1

[40] = biological target: Man(a1-3)[Man(a1-6)]Man(b1-4)GlcNAc(b1-4)GlcNAc
Summary of the method: as §1

[41] = biological target: Man(a1-3)[Man(a1-6)]Man(b1-4)GlcNAc(b1-4)[Fuc(a1-6)]GlcNAc
Summary of the method: as §1

[42] = biological target: Man(a1-6)Man
Summary of the method: as §1

[43] = biological target: Man(b1-4)GlcNAc
Summary of the method: as §1

[44] = biological target: MurNAc(b1-4)GlcNAc
Summary of the method: as §1

[45] = biological target: Neu5Ac(a2-3)Gal
Summary of the method: as §1

B1: Loc1 (Escherichia coli) (protein)
chain: APCALTNVGEQRGTYILKPLSMKGNLTAEKIENTGNIIECTDLQETTNAIKVHFLTQNALKFKVGSRHYIINFPFEYDGKKIELPGKSSYNLEEMLSAINFTIPYSIASVSDSSNTADIFPGTPFPLLFEIEVSSCTGNNTNCNSVRFNYNLNTILQVNLMTHHHHHH
Which “glycan array binding signal (z-score)” value [1] does the source give for B1 here?
Its value is 1.02.

What about the “glycan array binding signal (z-score)” value [2] of the same binder?
The value was 0.574.

And the “glycan array binding signal (z-score)” value [3]?
The value was -0.192.

What about the “glycan array binding signal (z-score)” value [4] of the same binder?
The value was 0.218.

What about the “glycan array binding signal (z-score)” value [5] of the same binder?
Its value is 0.01.

What about the “glycan array binding signal (z-score)” value [6] of the same binder?
Its value is -0.002.

What about the “glycan array binding signal (z-score)” value [7] of the same binder?
The value was -0.454.

And the “glycan array binding signal (z-score)” value [8]?
Its value is -0.929.

What about the “glycan array binding signal (z-score)” value [9] of the same binder?
The value was 0.666.

And the “glycan array binding signal (z-score)” value [10]?
The value was 1.03.

And the “glycan array binding signal (z-score)” value [11]?
The value was -0.181.

What about the “glycan array binding signal (z-score)” value [12] of the same binder?
Its value is -0.885.

What about the “glycan array binding signal (z-score)” value [13] of the same binder?
Its value is -0.092.

What about the “glycan array binding signal (z-score)” value [14] of the same binder?
Its value is -0.7.

And the “glycan array binding signal (z-score)” value [15]?
Its value is 0.463.

And the “glycan array binding signal (z-score)” value [16]?
Its value is -0.432.

And the “glycan array binding signal (z-score)” value [17]?
Its value is -0.131.

And the “glycan array binding signal (z-score)” value [18]?
The value was 0.324.

And the “glycan array binding signal (z-score)” value [19]?
The value was -0.645.

And the “glycan array binding signal (z-score)” value [20]?
The value was 0.039.

What about the “glycan array binding signal (z-score)” value [21] of the same binder?
Its value is -0.831.

And the “glycan array binding signal (z-score)” value [22]?
Its value is -0.793.

And the “glycan array binding signal (z-score)” value [23]?
The value was -0.368.

What about the “glycan array binding signal (z-score)” value [24] of the same binder?
The value was 0.179.

And the “glycan array binding signal (z-score)” value [25]?
The value was -0.405.

And the “glycan array binding signal (z-score)” value [26]?
The value was -0.921.

And the “glycan array binding signal (z-score)” value [27]?
The value was -0.032.

And the “glycan array binding signal (z-score)” value [28]?
The value was 0.249.

And the “glycan array binding signal (z-score)” value [29]?
The value was 0.82.

And the “glycan array binding signal (z-score)” value [30]?
Its value is 0.531.

And the “glycan array binding signal (z-score)” value [31]?
The value was -0.121.

What about the “glycan array binding signal (z-score)” value [32] of the same binder?
The value was -0.687.

And the “glycan array binding signal (z-score)” value [33]?
The value was -0.074.

And the “glycan array binding signal (z-score)” value [34]?
The value was -1.02.

And the “glycan array binding signal (z-score)” value [35]?
The value was -1.09.

And the “glycan array binding signal (z-score)” value [36]?
Its value is -0.118.

And the “glycan array binding signal (z-score)” value [37]?
Its value is -0.042.

And the “glycan array binding signal (z-score)” value [38]?
Its value is -0.761.

And the “glycan array binding signal (z-score)” value [39]?
The value was 0.131.

And the “glycan array binding signal (z-score)” value [40]?
Its value is 0.959.

And the “glycan array binding signal (z-score)” value [41]?
The value was -1.1.

What about the “glycan array binding signal (z-score)” value [42] of the same binder?
Its value is 0.766.

What about the “glycan array binding signal (z-score)” value [43] of the same binder?
The value was -0.219.

What about the “glycan array binding signal (z-score)” value [44] of the same binder?
Its value is -0.533.

What about the “glycan array binding signal (z-score)” value [45] of the same binder?
The value was -0.225.

— the supplement of paper PMC8728848
